Measurements reported in PubChem BioAssay AID493246 (Drosophila RNAi Screening Center, 2011)

Purpose: 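Genome-wide search for dsRNAs that reduce cell number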 (primary screen)
Cells: Drosophila Kc and S2R+ cells
Reagents: long dsRNA against Drosophila genes
Measurement: 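Cell number per well after knock-down, printed as raw plate values; calls were based on per-plate z-scores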
Direction: Kc cell number and S2R+ cell number: higher = more cells remaining
Active means: 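Active when the per-plate z-score of cell number is 3 or more in the direction of fewer cells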
The deposit covers about 21,000 reagents; this is an unselected part of those that have a named target and a result. Over the whole deposit, 429 (2%) were called active. 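Values are raw and not normalised between plates; calls rest on per-plate z-scores that were not deposited.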 Unmarked entries are inactive. A plus sign joins genes that one reagent is predicted to hit. No sequences are given here. The record does not give: the amount of reagent, the time to read-out.

For CG5149 [DRSC02819], what does the deposit list?
Kc cell number, rep 1: 1.34e6; Kc cell number, rep 2: 1.39e6; S2R+ cell number, rep 1: 5.43e5; S2R+ cell number, rep 2: 7.64e5

For CG32733 (retired record) + CG32797 [DRSC17705], what does the deposit list?
Kc cell number, rep 1: 1.40e6; Kc cell number, rep 2: 1.41e6; S2R+ cell number, rep 1: 9.36e5; S2R+ cell number, rep 2: 1.07e6

For CG8661 [DRSC20115], how do the results read?
Kc cell number, rep 1: 1.54e6; Kc cell number, rep 2: 1.56e6; S2R+ cell number, rep 1: 1.15e6; S2R+ cell number, rep 2: 1.26e6

What did the screen give for Prx1 [DRSC10741]?
Kc cell number, rep 1: 1.34e6; Kc cell number, rep 2: 1.46e6; S2R+ cell number, rep 1: 1.33e6; S2R+ cell number, rep 2: 1.45e6

What is on record for Hmx [DRSC15884]?
Kc cell number, rep 1: 1.35e6; Kc cell number, rep 2: 1.48e6; S2R+ cell number, rep 1: 1.36e6; S2R+ cell number, rep 2: 1.53e6

For Hmx [DRSC16706], what does the deposit list?
Kc cell number, rep 1: 1.57e6; Kc cell number, rep 2: 1.64e6; S2R+ cell number, rep 1: 9.31e5; S2R+ cell number, rep 2: 9.63e5

2 successive records from above, for reference:
CG5149 [DRSC02819] | Kc cell number, rep 1 = 1.34e6; Kc cell number, rep 2 = 1.39e6; S2R+ cell number, rep 1 = 5.43e5; S2R+ cell number, rep 2 = 7.64e5
CG32733 (retired record) + CG32797 [DRSC17705] | Kc cell number, rep 1 = 1.40e6; Kc cell number, rep 2 = 1.41e6; S2R+ cell number, rep 1 = 9.36e5; S2R+ cell number, rep 2 = 1.07e6

Additional entries follow.
How did the screen score CG12204 [DRSC19442]?
Kc cell number, rep 1: 1.53e6; Kc cell number, rep 2: 1.61e6; S2R+ cell number, rep 1: 1.04e6; S2R+ cell number, rep 2: 1.20e6

What did the screen give for CG12836 [DRSC06182]?
Kc cell number, rep 1: 1.76e6; Kc cell number, rep 2: 1.75e6; S2R+ cell number, rep 1: 1.42e6; S2R+ cell number, rep 2: 1.54e6

How did the screen score Pdss2 [DRSC11625]?
Kc cell number, rep 1: 1.55e6; Kc cell number, rep 2: 1.61e6; S2R+ cell number, rep 1: 1.35e6; S2R+ cell number, rep 2: 1.39e6

Which result is listed for CG9143 [DRSC07338]?
Kc cell number, rep 1: 1.26e6; Kc cell number, rep 2: 1.30e6; S2R+ cell number, rep 1: 1.09e6; S2R+ cell number, rep 2: 1.14e6

For CG14958 [DRSC08417], what was measured?
Kc cell number, rep 1: 1.37e6; Kc cell number, rep 2: 1.44e6; S2R+ cell number, rep 1: 8.92e5; S2R+ cell number, rep 2: 1.00e6

For CG5421 [DRSC02858], what does the deposit list?
Kc cell number, rep 1: 1.57e6; Kc cell number, rep 2: 1.67e6; S2R+ cell number, rep 1: 1.35e6; S2R+ cell number, rep 2: 1.42e6

How did the screen score Obp56g [DRSC06432]?
Kc cell number, rep 1: 1.59e6; Kc cell number, rep 2: 1.63e6; S2R+ cell number, rep 1: 1.13e6; S2R+ cell number, rep 2: 1.32e6

With Act79B [DRSC11604], what was measured?
Kc cell number, rep 1: 1.29e6; Kc cell number, rep 2: 1.24e6; S2R+ cell number, rep 1: 1.08e6; S2R+ cell number, rep 2: 1.19e6
